The values below come from article PMC4532879.

Amino acid sequences for entries named in this document (tags omitted).
UniProt P08670: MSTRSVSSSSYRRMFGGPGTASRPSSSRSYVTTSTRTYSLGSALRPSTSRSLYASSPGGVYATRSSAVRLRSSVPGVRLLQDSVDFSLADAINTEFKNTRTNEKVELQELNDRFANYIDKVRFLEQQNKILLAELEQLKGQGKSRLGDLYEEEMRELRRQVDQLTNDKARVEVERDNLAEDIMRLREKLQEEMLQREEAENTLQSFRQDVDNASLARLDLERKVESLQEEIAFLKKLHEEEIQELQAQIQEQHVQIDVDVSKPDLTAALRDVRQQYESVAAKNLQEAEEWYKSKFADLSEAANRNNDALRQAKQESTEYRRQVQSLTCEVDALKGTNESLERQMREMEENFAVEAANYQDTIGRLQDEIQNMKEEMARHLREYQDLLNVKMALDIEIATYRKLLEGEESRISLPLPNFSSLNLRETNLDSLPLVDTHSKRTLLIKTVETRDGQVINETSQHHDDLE
UniProt Q15149: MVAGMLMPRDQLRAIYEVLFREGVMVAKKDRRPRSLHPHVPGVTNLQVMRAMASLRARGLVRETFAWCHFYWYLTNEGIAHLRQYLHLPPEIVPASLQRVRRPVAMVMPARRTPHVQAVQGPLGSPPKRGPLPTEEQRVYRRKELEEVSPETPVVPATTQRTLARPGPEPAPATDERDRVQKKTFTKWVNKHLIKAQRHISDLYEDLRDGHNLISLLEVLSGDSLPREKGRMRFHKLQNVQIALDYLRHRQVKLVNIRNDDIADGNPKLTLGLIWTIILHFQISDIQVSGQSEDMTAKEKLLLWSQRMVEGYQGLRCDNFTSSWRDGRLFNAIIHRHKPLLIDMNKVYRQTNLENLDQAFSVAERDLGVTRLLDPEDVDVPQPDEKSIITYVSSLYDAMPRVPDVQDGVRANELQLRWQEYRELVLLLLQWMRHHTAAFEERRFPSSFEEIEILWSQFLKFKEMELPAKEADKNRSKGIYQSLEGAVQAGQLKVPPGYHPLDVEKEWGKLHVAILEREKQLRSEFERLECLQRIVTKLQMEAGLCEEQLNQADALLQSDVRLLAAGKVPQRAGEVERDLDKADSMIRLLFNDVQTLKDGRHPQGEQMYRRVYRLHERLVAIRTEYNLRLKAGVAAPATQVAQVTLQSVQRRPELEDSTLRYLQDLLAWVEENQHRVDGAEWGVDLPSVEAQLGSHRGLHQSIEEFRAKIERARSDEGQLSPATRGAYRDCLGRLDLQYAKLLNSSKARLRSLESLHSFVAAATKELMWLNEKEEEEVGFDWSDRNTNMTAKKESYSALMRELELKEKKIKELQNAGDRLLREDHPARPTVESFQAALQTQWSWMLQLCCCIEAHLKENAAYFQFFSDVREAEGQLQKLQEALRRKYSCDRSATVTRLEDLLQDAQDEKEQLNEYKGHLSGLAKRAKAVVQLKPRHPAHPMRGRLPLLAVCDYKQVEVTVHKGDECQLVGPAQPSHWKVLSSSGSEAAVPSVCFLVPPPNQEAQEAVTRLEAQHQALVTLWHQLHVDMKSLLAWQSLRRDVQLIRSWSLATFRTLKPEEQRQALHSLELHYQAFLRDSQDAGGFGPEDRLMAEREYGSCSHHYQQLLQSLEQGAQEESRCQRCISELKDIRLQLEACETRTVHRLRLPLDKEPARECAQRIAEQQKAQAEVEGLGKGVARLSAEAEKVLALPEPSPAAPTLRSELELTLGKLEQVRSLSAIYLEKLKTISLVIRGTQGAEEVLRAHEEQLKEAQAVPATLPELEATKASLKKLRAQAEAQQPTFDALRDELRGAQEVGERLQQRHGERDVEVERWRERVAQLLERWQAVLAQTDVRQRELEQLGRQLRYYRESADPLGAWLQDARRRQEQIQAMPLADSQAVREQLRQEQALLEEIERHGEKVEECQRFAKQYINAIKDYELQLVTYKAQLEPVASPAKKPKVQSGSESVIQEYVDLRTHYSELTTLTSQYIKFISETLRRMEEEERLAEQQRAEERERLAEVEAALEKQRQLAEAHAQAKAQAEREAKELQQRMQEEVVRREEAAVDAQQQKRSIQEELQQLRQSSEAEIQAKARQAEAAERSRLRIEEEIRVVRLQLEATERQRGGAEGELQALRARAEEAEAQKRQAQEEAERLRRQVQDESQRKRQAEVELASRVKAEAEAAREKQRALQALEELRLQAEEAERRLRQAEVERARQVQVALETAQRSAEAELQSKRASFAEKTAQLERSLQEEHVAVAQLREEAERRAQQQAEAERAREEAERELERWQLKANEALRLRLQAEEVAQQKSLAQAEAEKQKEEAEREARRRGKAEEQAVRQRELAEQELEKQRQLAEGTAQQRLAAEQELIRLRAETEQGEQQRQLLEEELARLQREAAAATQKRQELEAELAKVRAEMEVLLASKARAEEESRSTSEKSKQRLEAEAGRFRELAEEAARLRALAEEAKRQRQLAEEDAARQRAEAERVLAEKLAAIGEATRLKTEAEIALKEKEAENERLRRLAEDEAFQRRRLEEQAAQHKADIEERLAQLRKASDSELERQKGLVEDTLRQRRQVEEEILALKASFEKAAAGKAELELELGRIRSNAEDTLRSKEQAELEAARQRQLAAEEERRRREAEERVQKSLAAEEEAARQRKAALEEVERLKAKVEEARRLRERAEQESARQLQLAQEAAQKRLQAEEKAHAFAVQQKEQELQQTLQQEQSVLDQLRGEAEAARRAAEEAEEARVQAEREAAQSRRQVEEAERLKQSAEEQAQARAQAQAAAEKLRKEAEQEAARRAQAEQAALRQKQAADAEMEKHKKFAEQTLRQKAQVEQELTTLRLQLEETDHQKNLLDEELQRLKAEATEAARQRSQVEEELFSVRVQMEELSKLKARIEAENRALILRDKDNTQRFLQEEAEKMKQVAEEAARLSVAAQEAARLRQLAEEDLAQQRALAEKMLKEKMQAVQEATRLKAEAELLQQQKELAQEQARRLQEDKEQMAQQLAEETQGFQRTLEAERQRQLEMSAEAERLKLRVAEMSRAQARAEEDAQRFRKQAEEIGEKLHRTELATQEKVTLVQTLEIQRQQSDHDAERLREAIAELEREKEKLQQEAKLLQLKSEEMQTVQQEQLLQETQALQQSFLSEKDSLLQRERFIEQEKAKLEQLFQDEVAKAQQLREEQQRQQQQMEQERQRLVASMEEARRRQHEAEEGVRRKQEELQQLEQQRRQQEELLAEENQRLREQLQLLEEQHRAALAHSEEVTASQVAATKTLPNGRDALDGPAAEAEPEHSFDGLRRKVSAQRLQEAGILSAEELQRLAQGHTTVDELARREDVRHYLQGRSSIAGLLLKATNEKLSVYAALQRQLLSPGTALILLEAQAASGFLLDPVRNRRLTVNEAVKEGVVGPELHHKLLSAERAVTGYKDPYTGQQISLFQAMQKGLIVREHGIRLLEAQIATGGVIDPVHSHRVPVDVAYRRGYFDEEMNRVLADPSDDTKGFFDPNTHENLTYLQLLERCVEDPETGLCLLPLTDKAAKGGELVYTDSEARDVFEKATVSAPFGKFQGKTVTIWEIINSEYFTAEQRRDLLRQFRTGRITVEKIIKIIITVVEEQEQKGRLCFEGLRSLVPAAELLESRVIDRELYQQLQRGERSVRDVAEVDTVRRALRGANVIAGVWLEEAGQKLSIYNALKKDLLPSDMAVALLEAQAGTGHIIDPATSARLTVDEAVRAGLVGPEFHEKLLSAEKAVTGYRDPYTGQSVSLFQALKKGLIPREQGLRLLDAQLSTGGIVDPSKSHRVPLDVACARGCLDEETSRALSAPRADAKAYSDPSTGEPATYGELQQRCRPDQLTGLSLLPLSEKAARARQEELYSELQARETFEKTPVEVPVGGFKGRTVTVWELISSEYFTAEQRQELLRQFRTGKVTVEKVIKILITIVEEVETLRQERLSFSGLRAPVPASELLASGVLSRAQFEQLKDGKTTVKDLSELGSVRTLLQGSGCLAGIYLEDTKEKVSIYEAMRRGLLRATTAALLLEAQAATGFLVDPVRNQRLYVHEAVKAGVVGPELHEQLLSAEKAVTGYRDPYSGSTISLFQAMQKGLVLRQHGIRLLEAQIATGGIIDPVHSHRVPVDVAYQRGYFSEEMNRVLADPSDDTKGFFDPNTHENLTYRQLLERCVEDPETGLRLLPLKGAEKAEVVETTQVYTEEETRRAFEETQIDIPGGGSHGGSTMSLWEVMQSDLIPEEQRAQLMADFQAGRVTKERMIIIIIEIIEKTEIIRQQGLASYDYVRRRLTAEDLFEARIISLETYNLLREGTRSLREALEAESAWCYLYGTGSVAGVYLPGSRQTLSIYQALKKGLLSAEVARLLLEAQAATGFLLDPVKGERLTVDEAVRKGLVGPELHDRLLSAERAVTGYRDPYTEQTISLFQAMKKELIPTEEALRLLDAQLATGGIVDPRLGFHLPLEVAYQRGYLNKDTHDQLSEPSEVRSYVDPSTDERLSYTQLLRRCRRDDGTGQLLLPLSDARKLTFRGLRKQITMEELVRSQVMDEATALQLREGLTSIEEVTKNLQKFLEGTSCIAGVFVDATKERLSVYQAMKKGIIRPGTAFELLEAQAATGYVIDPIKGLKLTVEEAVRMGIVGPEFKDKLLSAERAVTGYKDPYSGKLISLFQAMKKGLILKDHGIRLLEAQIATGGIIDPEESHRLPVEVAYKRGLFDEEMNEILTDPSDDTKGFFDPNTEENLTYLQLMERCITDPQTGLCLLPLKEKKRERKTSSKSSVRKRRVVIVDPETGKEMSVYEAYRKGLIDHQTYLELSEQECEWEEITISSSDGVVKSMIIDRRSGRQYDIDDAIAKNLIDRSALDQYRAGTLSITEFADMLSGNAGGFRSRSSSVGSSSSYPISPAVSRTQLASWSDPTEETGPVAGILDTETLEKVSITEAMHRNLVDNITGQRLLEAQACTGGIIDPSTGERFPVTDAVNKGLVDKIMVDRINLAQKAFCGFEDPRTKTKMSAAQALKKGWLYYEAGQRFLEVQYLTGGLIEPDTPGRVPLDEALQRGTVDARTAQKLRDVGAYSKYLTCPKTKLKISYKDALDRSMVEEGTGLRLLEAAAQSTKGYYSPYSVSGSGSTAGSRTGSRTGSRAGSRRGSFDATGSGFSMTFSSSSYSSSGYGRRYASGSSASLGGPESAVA
UniProt P08729: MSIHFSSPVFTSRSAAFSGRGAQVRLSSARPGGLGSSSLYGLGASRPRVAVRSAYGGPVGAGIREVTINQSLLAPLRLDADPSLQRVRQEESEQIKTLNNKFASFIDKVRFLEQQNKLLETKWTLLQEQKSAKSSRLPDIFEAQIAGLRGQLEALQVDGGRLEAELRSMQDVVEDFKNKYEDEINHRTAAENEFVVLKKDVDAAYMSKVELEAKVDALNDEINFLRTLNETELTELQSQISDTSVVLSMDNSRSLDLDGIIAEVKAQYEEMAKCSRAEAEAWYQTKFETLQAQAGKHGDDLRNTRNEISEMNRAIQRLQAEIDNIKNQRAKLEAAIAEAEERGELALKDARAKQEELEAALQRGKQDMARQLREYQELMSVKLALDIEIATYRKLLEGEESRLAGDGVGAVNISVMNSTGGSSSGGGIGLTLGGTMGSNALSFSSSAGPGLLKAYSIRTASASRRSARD

No constants are given. Whether binding was seen depends on the method and setting. In cells and extracts the contact can be indirect. Some entries that bind do so weakly or less than the wild type.

Holding throughout (assay): cross-linking; in vivo crosslinking of a 1:1 mixture of SILAC light and heavy HeLa and HeLa/SN100 cells with the PIR crosslinker BDP-NHP, 10 mM, 1 h, room temperature; crosslinked peptides enriched (SCX, avidin) and identified by LC-MS (ReACT)
In assay [1] the target is vimentin (human (endogenous in HeLa)) (UniProt P08670).
Assay [2] concerns the target keratin 18 (human (endogenous in HeLa)) (UniProt P05783).
Assay [3] deals with plectin (human (endogenous in HeLa)) (UniProt Q15149).

Take keratin 7 (from UniProt P08729 1-469): in assay [1], the binding result is “binds”.

B1: keratin 18 (protein, UniProt P05783 1-430)
chain: MSFTTRSTFSTNYRSLGSVQAPSYGARPVSSAASVYAGAGGSGSRISVSRSTSFRGGMGSGGLATGIAGGLAGMGGIQNEKETMQSLNDRLASYLDRVRSLETENRRLESKIREHLEKKGPQVRDWSHYFKIIEDLRAQIFANTVDNARIVLQIDNARLAADDFRVKYETELAMRQSVENDIHGLRKVIDDTNITRLQLETEIEALKEELLFMKKNHEEEVKGLQAQIASSGLTVEVDAPKSQDLAKIMADIRAQYDELARKNREELDKYWSQQIEESTTVVTTQSAEVGAAETTLTELRRTVQSLEIDLDSMRNLKASLENSLREVEARYALQMEQLNGILLHLESELAQTRAEGQRQAQEYEALLNIKVKLEAEIATYRRLLEDGEDFNLGDALDSSNSMQTIQKTTTRRIVDGKVVSETNDTKVLRH
As for B1, the binding result in assay [2] and in assay [3] was “binds” throughout.
